Assay results reported in patent publication EP2071024A1, “Peptides of human prostatic acid phosphatase enhancing viral infectivity” (Pharis Biotec GmbH, priority 2007, dated 2009).
At least one peptide structure holds a part that was inferred or is arguable (an end, a ring closure or a residue). Ends that are not written are not given here.

Legend:
retroviral particles = assay: Infection/transduction rate of retroviral particles (general statements); type: cell-based; settings: target cells infected with a low multiplicity of infection
[1] = tested on: HIV-1 O and HIV-1 M strains as well as two drug resistant HIV-1 NL4-3 derivatives; type: cell-based; settings: CEMX174 5.25 M7 cells, two days post infection
[2] = tested on: xenotropic murine-like retrovirus (XMRV); assay: XMRV infection of DU145 cells, qRT/PCR of XMRV env RNA; type: cell-based, XMRV (strain VP62)
[3] = Thioflavin T (ThT) fluorescence / fibril formation; type: physicochemical; settings: 10 µl samples (5 mg/ml) in 1 ml ThT working solution; excitation 440 nm, emission 482 nm
HIV-1 NL4-3 = settings: CEMX174 5.25 M7 cells, 36 hrs post infection; dose series; listed as freshly dissolved PAP85-120 solution

| Sequence | enhances viral infection rates (retroviral particles) | infection of HIV-1 strains [1] | effect on XMRV infection ([2]; high multiplicity of infection) | XMRV infection enhanced ([2]; low amount of virus, DU145 cells, 10 or 50 µg per ml) | presence of amyloid like fibrils (ThT binding) [3] | effect on HIV-1 infection (HIV-1 NL4-3) |
| --- | --- | --- | --- | --- | --- | --- |
| IRKRYRKFLNESYKHEQVYIRSTDVDRTLMSAMTNL [PAP85-120] | by several orders of magnitude | enhanced | low | up to 16 fold | – | – |
| IRKRYRKFLNESYKHEQVYIRSTDVDRTLMSAMTNL [freshly dissolved PAP85-120] | – | – | – | – | does not contain detectable amounts of fibrils | no effect |
